From PubChem BioAssay AID2685 (National Center for Advancing Translational Sciences (NCATS), 2010)
The list shows a part of the results. Shown are side measurements of this screen, not its main read-out; they come without a call. The list favours compounds with an active or inconclusive main result. Words in brackets tell the shape of the fitted curve; partial curves, single points and poor fits give uncertain potencies.

Test: qHTS Assay for Lipid Storage Modulators in Drosophila S3 Cells;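 for cell number change: cells counted by Cell Tracker Red CMTPX staining in the red channel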
Settings: BODIPY lipid droplet fluorescence, 18-24 h; for cell number change: measured here: cell count max response, cells fed with added oleic acid
How it was run: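 Drosophila S3 cells loaded with oleic acid (400 uM, as added) and compounds at several concentrations; lipid droplets imaged by 488-nm laser-scanning cytometry, 500–530 nm intensity and object ratio to cell channel. Percent activity normalized to 20 uM Triacsin C.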

[1] = measured here: lipid fluorescence (Fed channel) AC50, cells fed with added oleic acid
[2] = measured here: cell number channel AC50, cells fed with added oleic acid

Row | SMILES | cell number change [%] | AC50 [1] | AC50 [2]
1 | O=C(CSc1ncn[nH]1)Nc1ccccc1Sc1ccccc1 | -8.5 | 6.51 µM [falling, single point] | 
2 | COc1cccc(CNS(=O)(=O)/C=C/c2ccc(OC)c(OC)c2)c1 | -3.74 |  | 
3 | COC(=O)c1cccc(N(C(=O)CNC(=O)c2cccs2)C(C(=O)NCC2CCCO2)c2ccc(OC)c(OC)c2)c1 (stereo not given) | 16.1 | 1.03 µM [rising, single point] | 
4 | C=CCNC(=O)C1CCN(c2c([N+](=O)[O-])cc(C(F)(F)F)cc2[N+](=O)[O-])CC1 |  |  | 2.59 µM [rising, partial curve]
5 | Cc1nn(Cc2ccc(F)cc2)c(C)c1NC(=O)c1cc(-c2ccc3c(c2)OCO3)on1 | 3.69 | 0.82 µM [rising, partial curve] | 
6 | CCCc1nc2c(c(=O)c3ccccc3n2C)c(=O)n1-c1ccc(F)cc1 |  | 29.1 µM [rising, single point] | 
7 | Cc1nc(CSc2nsc(/C=C/N(C)C)c2C#N)cs1 | 74.8 |  | 13 µM [rising, partial curve]
8 | COc1ccc(N2C(=O)c3ccccc3NC23CCC(C)CC3)cc1 (stereo not given) | 14.8 | 0.92 µM [rising, partial curve] | 
9 | CCOC(=O)N1CCC(NC(=O)CN2C(=O)C(CC)Oc3ccc(C)cc32)CC1 (stereo not given) | -53.9 | 6.51 µM [falling, single point] | 20.6 µM [falling, partial curve]
10 | CC(C)Sc1nnc([C@@H]2CCCN2C(=O)OC(C)(C)C)o1 |  | 29.1 µM [falling, partial curve] | 
11 | CC(C)(C)c1ccc(C(=O)Nc2ccc(C(=O)N3CCCC3)cc2)cc1 | -19.2 | 29.1 µM [falling, partial curve, poor fit] | 
12 | O=C1CN(C(=O)COc2ccccc2)c2ccccc2N1 | 8.01 |  | 
13 | COc1ccc(C2c3[nH]c4ccccc4c3C[C@H]3C(=O)N(c4ccccc4C(=O)NCCN4CCOCC4)C(=O)N23)cc1 (stereo not given in full) | 2.24 | 1.84 µM [rising, partial curve] | 
14 | COc1cccc(N(CC(=O)NCc2ccco2)C(=O)CCC(=O)Nc2nccs2)c1 | 14.8 | 0.82 µM [rising, partial curve] | 
15 | CCc1ccc2nc(NC(=O)C3CCN(c4ncnc5sc(C)c(C)c45)CC3)sc2c1 | -10.7 | 0.00461 µM [falling, full curve, poor fit] | 
16 | CC(C)N1C(=O)C(Cc2nc3ccccc3c(=O)n2-c2ccccc2)c2ccccc21 (stereo not given) | 1.84 | 6.51 µM [rising, single point] | 7.31 µM [rising, single point]
17 | COc1ccc(NC(=O)C2COc3ccccc3O2)cc1S(=O)(=O)N1CCOCC1 (stereo not given) | 23.1 | 29.1 µM [rising, single point] | 0.326 µM [falling, single point]
18 | CC(C)N(CCC(=O)c1ccc2ccccc2c1)Cc1ccccc1 | -67.3 | 23.1 µM [falling, single point] | 13 µM [falling, partial curve]
19 | CCCC1(c2ccccc2)NC(=O)N(CCN2C(=O)c3ccccc3C2=O)C1=O (stereo not given) | -9.04 |  | 
20 | COc1cc(/C=C(/NC(=O)c2ccc(Cl)cc2Cl)C(=O)O)cc(OC)c1OC | 4.28 | 0.731 µM [falling, single point] | 
21 | COc1ccc(Cn2c(=O)oc3ccc(C)cc32)cc1OC |  | 0.58 µM [rising, single point] | 
22 | CSc1ccccc1C(=O)N1CCC2(CC1)CC(=O)c1ccccc1O2 | 18.4 | 0.92 µM [falling, single point] | 
23 | CCNC(=S)N1CCc2cc(OC)c(OC)cc2C1COc1ccccc1OC (stereo not given) |  | 14.6 µM [falling, partial curve] | 
24 | Cn1nc(C(=O)Nc2ccc(Cl)cc2)cc1C(=O)Nc1ccc(Cl)cc1 | 14.9 | 29.1 µM [rising, single point] | 
25 | CC1(C)CC(OC(=O)c2ccco2)CC(C)(C)N1O | -23.4 | 0.259 µM [falling, full curve, poor fit] | 
26 | CCOc1ccccc1NC(=O)CCCc1ccc(OC)c(C)c1 | -2.2 | 3.26 µM [rising, partial curve, poor fit] | 
27 | COc1ccc([C@H]2CC(=O)C=C(c3ccccc3C(F)(F)F)C2)cc1 | -20.3 | 2.91 µM [rising, single point] | 
28 | O=C(COC(=O)c1n[nH]c2ccccc12)NCc1ccccc1 | 19.9 | 29.1 µM [rising, single point] | 
29 | O=C(c1ccc(F)cc1F)N1CCN(S(=O)(=O)c2ccc3c(c2)OCCO3)CC1 | -6.48 |  | 
30 | C=CCn1c(CCNC(=O)c2ccccc2F)nnc1SCC(=O)Nc1nc(C)cs1 | -18.5 | 2.91 µM [falling, partial curve] | 

Entries listed so far that have a furan ring, fused or not (2):
Row | SMILES | cell number change [%] | AC50 [1] | AC50 [2]
14 | COc1cccc(N(CC(=O)NCc2ccco2)C(=O)CCC(=O)Nc2nccs2)c1 | 14.8 | 0.82 µM [rising, partial curve] | 
25 | CC1(C)CC(OC(=O)c2ccco2)CC(C)(C)N1O | -23.4 | 0.259 µM [falling, full curve, poor fit] | 
